Experimental data published in the supplement of paper PMC10849652.
Some of the results follow.

The chains behind the UniProt entries cited, without tags or fusion partners. Where a name states a change or a piece, a line headed by the entry shows the natural chain unless it says otherwise.
UniProt Q6UWU4: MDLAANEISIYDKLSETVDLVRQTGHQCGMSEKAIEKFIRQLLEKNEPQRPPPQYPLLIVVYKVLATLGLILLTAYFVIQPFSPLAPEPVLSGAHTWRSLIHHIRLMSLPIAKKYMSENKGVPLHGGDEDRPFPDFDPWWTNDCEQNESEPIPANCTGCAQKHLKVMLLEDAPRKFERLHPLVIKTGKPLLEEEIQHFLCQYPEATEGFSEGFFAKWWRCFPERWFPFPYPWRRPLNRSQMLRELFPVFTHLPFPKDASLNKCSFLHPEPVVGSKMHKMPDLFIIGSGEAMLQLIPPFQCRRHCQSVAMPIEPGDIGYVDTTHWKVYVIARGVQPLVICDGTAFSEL
UniProt Q9UFG5: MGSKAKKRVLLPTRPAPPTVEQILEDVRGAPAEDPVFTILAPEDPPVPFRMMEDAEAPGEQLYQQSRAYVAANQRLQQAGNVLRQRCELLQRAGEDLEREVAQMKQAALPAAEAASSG
UniProt Q9NSK7: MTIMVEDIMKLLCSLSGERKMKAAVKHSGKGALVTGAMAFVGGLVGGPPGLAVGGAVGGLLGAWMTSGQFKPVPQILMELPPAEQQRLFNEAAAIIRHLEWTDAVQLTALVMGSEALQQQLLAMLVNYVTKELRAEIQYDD
UniProt P07384: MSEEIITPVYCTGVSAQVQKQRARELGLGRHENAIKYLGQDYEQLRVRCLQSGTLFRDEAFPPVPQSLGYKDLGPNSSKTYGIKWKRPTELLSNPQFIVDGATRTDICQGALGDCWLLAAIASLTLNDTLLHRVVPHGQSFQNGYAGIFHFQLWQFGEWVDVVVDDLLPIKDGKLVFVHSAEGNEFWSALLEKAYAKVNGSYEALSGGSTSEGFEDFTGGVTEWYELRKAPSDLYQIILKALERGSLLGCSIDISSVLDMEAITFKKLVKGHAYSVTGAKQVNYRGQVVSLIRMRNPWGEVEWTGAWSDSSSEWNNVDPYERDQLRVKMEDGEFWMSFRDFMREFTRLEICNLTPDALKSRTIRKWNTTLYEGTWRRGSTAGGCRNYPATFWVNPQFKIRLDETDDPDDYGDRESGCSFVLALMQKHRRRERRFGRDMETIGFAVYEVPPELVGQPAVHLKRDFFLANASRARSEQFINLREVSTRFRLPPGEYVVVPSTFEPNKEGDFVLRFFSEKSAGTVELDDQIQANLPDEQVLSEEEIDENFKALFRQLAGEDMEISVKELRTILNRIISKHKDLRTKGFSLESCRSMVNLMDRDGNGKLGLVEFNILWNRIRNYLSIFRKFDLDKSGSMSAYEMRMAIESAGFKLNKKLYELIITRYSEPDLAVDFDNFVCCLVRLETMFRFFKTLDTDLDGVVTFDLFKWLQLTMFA
UniProt Q96L46: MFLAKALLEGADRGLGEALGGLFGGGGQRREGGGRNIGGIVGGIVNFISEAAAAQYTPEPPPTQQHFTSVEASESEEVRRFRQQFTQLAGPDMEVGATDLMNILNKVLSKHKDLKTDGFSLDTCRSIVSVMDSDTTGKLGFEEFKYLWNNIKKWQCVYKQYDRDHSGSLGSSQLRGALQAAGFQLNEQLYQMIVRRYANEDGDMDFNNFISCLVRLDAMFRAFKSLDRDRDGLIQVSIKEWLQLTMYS
UniProt P04003: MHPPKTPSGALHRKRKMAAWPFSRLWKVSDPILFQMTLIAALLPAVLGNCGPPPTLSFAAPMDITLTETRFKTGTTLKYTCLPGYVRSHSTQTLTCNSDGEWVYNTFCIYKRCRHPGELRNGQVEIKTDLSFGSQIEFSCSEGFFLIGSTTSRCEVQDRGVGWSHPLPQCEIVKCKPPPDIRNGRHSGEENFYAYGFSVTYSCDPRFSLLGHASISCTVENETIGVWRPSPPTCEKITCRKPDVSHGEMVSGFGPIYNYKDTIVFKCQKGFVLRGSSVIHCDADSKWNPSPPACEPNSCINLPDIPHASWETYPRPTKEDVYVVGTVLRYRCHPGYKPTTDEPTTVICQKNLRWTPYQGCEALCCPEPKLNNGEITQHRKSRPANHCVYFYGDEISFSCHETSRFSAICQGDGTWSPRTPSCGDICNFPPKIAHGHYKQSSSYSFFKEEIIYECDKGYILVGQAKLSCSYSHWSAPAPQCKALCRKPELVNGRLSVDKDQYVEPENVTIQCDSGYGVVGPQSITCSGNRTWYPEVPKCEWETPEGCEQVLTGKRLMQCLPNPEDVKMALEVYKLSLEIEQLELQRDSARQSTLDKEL
UniProt Q9NS00: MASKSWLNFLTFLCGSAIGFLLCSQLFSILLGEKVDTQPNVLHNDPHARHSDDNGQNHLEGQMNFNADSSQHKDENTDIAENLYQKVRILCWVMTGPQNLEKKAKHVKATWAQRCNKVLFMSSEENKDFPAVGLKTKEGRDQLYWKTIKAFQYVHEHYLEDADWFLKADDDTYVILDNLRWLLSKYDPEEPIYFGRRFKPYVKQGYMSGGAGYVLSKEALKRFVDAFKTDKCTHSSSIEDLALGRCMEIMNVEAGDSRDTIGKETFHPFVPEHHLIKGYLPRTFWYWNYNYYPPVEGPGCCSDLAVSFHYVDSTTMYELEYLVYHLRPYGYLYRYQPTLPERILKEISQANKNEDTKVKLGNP
UniProt Q9HAS0: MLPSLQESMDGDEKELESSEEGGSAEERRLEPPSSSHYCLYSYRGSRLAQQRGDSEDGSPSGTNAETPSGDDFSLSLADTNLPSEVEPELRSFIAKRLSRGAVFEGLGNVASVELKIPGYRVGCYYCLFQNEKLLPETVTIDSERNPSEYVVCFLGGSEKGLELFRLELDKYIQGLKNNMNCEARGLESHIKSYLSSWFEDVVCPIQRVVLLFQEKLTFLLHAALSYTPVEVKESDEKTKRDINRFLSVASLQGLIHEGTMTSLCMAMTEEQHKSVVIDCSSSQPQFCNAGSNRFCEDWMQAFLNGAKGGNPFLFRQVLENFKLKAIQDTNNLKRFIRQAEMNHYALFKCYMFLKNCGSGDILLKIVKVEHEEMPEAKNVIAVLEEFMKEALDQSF
UniProt Q8WUR7: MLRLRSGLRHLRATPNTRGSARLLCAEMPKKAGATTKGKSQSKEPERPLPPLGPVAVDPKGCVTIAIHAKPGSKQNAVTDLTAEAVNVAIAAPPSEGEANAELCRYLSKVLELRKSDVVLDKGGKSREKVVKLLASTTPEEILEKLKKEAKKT
UniProt O14523: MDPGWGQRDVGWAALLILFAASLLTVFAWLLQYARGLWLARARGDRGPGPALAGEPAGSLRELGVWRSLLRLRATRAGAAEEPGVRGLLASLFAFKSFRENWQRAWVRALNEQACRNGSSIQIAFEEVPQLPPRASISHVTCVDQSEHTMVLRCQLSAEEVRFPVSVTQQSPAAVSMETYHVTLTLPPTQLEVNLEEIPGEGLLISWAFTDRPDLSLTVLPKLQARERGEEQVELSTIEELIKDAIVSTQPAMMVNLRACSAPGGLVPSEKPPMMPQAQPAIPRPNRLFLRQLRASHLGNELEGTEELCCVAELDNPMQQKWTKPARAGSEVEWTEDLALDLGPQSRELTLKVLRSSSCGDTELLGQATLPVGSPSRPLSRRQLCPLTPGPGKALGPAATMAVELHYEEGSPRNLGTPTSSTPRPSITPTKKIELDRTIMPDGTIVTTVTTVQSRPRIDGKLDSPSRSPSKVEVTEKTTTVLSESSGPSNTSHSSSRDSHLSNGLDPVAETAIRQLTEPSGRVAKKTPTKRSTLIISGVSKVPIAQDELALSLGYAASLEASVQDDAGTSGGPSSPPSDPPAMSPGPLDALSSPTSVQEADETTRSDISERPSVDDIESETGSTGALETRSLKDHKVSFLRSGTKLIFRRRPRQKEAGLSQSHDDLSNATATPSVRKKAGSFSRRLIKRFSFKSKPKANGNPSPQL
UniProt Q86YS7: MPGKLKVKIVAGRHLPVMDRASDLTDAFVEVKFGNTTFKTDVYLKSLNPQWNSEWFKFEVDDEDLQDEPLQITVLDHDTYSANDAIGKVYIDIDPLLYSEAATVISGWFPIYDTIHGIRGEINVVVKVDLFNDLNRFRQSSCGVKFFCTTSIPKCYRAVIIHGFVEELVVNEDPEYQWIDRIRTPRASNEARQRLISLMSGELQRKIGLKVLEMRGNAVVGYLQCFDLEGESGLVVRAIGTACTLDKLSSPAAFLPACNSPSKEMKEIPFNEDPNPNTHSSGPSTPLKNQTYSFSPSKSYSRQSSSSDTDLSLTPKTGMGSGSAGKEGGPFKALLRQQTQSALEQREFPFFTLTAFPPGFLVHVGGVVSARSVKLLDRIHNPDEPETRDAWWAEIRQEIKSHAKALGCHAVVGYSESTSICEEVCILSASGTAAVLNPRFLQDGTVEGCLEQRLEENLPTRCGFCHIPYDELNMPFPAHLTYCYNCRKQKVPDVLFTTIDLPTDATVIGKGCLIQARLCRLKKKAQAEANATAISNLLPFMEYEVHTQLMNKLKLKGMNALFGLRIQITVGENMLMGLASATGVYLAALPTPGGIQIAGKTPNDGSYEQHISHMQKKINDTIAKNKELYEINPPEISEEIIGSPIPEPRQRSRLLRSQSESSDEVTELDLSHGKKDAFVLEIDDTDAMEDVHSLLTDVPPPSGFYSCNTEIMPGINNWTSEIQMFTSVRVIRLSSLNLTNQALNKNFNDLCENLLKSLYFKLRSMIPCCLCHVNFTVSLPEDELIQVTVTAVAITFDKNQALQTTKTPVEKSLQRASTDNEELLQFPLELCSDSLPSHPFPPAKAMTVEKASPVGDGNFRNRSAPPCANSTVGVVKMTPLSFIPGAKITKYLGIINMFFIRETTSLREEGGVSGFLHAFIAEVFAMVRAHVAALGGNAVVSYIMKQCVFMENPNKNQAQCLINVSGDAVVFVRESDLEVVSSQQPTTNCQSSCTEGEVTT
UniProt Q9HB71, whole entry, looked up: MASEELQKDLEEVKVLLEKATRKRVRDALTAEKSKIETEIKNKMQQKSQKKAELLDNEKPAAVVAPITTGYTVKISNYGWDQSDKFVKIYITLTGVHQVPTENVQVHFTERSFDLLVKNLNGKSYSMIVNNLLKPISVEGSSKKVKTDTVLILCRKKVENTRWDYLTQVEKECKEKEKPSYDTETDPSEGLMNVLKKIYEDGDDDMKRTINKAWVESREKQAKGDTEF
UniProt Q9Y6W3: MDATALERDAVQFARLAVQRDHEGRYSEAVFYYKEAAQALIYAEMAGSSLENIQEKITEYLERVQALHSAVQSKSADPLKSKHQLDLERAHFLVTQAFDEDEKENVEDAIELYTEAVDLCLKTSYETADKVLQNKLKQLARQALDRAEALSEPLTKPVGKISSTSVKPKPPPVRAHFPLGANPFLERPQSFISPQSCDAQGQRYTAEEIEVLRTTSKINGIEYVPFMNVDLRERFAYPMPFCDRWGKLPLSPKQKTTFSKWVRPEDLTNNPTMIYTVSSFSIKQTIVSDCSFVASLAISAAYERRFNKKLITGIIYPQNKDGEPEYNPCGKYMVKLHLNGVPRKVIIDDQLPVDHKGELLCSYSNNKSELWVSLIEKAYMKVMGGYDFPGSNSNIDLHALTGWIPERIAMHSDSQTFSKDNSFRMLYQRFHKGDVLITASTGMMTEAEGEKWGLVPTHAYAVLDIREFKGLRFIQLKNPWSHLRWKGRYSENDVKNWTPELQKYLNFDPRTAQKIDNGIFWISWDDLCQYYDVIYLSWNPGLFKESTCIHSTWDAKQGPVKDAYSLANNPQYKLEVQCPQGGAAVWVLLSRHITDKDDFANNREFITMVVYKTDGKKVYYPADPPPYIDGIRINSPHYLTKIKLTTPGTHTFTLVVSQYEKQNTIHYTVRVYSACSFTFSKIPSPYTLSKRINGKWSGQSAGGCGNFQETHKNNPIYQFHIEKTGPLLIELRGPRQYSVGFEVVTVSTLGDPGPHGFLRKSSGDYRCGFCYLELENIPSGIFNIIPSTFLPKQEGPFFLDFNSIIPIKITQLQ
UniProt Q9H0W9: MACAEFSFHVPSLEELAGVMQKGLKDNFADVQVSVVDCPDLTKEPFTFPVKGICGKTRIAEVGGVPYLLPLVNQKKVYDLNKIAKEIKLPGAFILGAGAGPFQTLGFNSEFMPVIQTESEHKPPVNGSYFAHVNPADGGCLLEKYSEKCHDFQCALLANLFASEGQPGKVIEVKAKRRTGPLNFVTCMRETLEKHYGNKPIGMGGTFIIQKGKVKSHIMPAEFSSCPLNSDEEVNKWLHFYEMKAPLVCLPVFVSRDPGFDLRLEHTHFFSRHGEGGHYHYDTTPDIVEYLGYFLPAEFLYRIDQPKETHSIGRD
UniProt Q9Y376: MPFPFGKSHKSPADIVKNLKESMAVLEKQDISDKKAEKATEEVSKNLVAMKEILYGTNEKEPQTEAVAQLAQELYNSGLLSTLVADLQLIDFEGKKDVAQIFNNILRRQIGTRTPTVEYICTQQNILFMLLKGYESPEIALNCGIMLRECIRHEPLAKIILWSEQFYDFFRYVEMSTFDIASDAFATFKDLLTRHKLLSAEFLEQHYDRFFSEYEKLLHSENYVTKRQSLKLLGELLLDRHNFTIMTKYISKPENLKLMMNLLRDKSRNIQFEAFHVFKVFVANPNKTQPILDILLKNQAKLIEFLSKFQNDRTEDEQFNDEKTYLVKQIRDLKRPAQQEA

Compound: c1cn2cc(-c3ccc4cn[nH]c4c3)nc(Nc3ccc(N4CCOCC4)cc3)c2n1 [entospletinib]
Experiment: log2 fold change, soluble protein after heating vs DMSO (PISA); higher = thermal stabilisation; K562 cells, 10 uM, 30 min; active = over 0.2 and 3.5 SD of the protein, either way, in both replicates (recomputed)
How it was run: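 For each measurement, 10 μM compound was applied for 30 min to K562 cells at 2×10^6 cells/mL. Aliquots were heated for 3 min across 48°C-58°C, pooled, and extracted in PBS with 0.5% NP-40 at 4°C; the supernatant after 21,000xg for 90 min was soluble protein. This was quantified by TMTpro 16plex LC-MS/MS with channel sums equalised, and thermal stability was reported relative to control samples from duplicates, on a log2 fold-change scale.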

| Target | log2 fold change |
| --- | --- |
| C6orf89 isoform 2 (UniProt Q6UWU4) | inactive: -0.024 |
| C19orf25 (UniProt Q9UFG5) | inactive: -0.029 |
| C19orf12 (UniProt Q9NSK7) | inactive: -0.175 |
| C9orf40 (UniProt Q8IXQ3) | inactive: 0.043 |
| CAPN1 (UniProt P07384) | inactive: -0.039 |
| CAPNS2 (UniProt Q96L46) | inactive: -0.303 |
| C8orf76 (UniProt Q96K31) | inactive: -0.046 |
| C8orf33 isoform 2 (UniProt Q9H7E9) | inactive: 0.096 |
| CAPZA2 (UniProt P47755) | inactive: 0.001 |
| C4BPA (UniProt P04003) | inactive: 0.049 |
| C1GALT1 (UniProt Q9NS00) | inactive: 0.036 |
| C17orf75 (UniProt Q9HAS0) | inactive: -0.029 |
| C3 (UniProt P01024) | inactive: 0.223 |
| C15orf40 (UniProt Q8WUR7) | inactive: 0.044 |
| C2CD2L (UniProt O14523) | inactive: 0.061 |
| C2CD5 isoform 4 (UniProt Q86YS7) | inactive: -0.064 |
| CACYBP (UniProt Q9HB71) | inactive: -0.006 |
| CAPN1 (UniProt E9PLX0) | inactive: 0.154 |
| CAPN7 (UniProt Q9Y6W3) | inactive: -0.015 |
| C11orf54 (UniProt Q9H0W9) | inactive: 0.049 |
| CAB39 (UniProt Q9Y376) | inactive: -0.009 |
| C1orf109 (UniProt Q9NX04) | inactive: -0.004 |

Some values from above:
log2 fold change with CAPZA2 (UniProt P47755) is entered as inactive: 0.001
log2 fold change with CAPN1 (UniProt E9PLX0) is entered as inactive: 0.154
